Results: PMC4937415
No constants are given. Whether binding was seen depends on the method and setting. For part of these data: Binding seen in cells or lysates may run through a third protein. Some binding calls cover weakened binding; strength is not graded here.

Protein sequences, listed by entry. Tags and fused reporters are not part of them.
UniProt P27695: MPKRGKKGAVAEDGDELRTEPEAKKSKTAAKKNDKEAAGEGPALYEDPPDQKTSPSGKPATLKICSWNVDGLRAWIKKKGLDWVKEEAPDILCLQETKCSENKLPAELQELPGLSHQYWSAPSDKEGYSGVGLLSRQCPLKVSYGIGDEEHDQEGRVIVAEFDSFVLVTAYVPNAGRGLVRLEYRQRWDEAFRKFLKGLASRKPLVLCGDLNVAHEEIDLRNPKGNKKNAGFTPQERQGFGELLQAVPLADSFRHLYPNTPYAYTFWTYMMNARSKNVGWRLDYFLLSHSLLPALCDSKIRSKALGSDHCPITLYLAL

Experiments:
[1] = target: T1, Peroxiredoxin 1 (PRDX1) (human (endogenous in HeLaS and HeLa)) (UniProt Q06830); assay: co-IP; protein A magnetic beads with anti-PRDX1 antibodies, HeLa nuclear extract, overnight at 4 °C; blot with anti-PRDX1 and anti-APE1
T1 sequence: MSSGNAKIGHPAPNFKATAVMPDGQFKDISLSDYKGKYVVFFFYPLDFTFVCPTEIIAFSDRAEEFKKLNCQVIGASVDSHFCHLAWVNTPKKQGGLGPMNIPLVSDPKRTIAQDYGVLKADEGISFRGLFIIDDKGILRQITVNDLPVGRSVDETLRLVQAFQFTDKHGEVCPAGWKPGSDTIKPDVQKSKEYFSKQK

[2] = target: T1, Peroxiredoxin 1 (PRDX1) (human (endogenous in HeLaS and HeLa)); assay: condition: only cells treated with 20 μM E3330 for 4 h; SEC; as a6, but HeLa cells treated with 20 μM E3330 for 4 h; fractions 23 to 28 probed with anti-PRDX1
[3] = target: T1, Peroxiredoxin 1 (PRDX1) (human (endogenous in HeLaS and HeLa)); assay: SEC; nuclear extract of HeLa cells prepared with the thiol blocking agent MMTS (80 mM); Superose 6 FPLC, buffer A, 0.25 ml/min; extract and fractions by Western blot with anti-PRDX1 and anti-APE1; 60 kDa polypeptide in fractions 23 and 24

APE1 (native, 37 kDa) (from UniProt P27695 1-318)
binding [1]: binds | binding [2]: no binding | binding [3]: binds
